Source: PubChem BioAssay AID504744 (Drosophila RNAi Screening Center, 2011)
Test: 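Identify dsRNAs that increase or decrease phospho-dAkt after insulin treatment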 (primary screen). Cell system: Drosophila Kc167 cells. Reagents: long dsRNA against Drosophila genes, 250 ng dsRNA per well of a 384-well plate. Duration: 3 days of knock-down, then overnight serum-free starvation before stimulation. Challenge: bovine insulin at 387 nM for 10 minutes after 12 h without serum. Measurement: 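In-cell antibody fluorescence for phospho-dAkt in each well over DNA-dye signal, with log2 residuals expressed as z-scores adjusted for cell count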. Rule for the call: 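Hit in the insulin screen when the two-replicate mean z-score is more extreme than plus or minus 2.5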.
In all, the deposit lists about 23,000 reagents; shown is an unselected part of those that have a named target and a result. Of all reagents, 98 (0.43%) were called active. 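Only hit calls are given; the phospho-dAkt signals, z-scores and hit direction were not deposited.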

Or1a (GeneID 30978) [DRSC18689]: activity call = inactive
Mtmr6 (GeneID 37707) [DRSC04046]: activity call = inactive
ATP6AP2 (GeneID 41104) [DRSC16420]: activity call = inactive
CG32344 (GeneID 326208) [DRSC08578]: activity call = inactive
CG3713 (GeneID 50365) [DRSC18648]: activity call = inactive
CG4768 (GeneID 32666) [DRSC19917]: activity call = inactive
CG15167 (GeneID 35134) [DRSC02468]: activity call = inactive
CG34225 (GeneID 5740807) [DRSC05270]: activity call = inactive
DMAP1 (GeneID 37339) [DRSC06044]: activity call = inactive
CG2685 (GeneID 31259) [DRSC18463]: activity call = inactive
CG2061 (GeneID 32042) [DRSC19348]: activity call = inactive
CG13982 (GeneID 33895) [DRSC02314]: activity call = inactive
Octbeta2R (GeneID 41549) [DRSC15350]: activity call = inactive
Octbeta2R (GeneID 41549) [DRSC16165]: activity call = inactive
Men-b (GeneID 43936) [DRSC16736]: activity call = inactive
nej (GeneID 43856) [DRSC18006]: activity call = inactive
nej (GeneID 43856) [DRSC18801]: activity call = inactive
CG33462 (GeneID 2768841) [DRSC22902]: activity call = inactive
Dlip2 (GeneID 40579) [DRSC12346]: activity call = inactive
PPP4R2r (GeneID 31979) [DRSC18695]: activity call = inactive
PPP4R2r (GeneID 31979) [DRSC21503]: activity call = inactive
kri (GeneID 38655) [DRSC10515]: activity call = inactive
CG9519 (GeneID 32415) [DRSC20195]: activity call = inactive
CG3557 (GeneID 33426) [DRSC00614]: activity call = inactive

A run of entries of the results above, as a working copy:
CG2061 (GeneID 32042) [DRSC19348]: activity call = inactive
CG13982 (GeneID 33895) [DRSC02314]: activity call = inactive
Octbeta2R (GeneID 41549) [DRSC15350]: activity call = inactive
Octbeta2R (GeneID 41549) [DRSC16165]: activity call = inactive
Men-b (GeneID 43936) [DRSC16736]: activity call = inactive
nej (GeneID 43856) [DRSC18006]: activity call = inactive
nej (GeneID 43856) [DRSC18801]: activity call = inactive
CG33462 (GeneID 2768841) [DRSC22902]: activity call = inactive
Dlip2 (GeneID 40579) [DRSC12346]: activity call = inactive

Further records:
CG42360 (GeneID 37937) [DRSC04224]: activity call = active
Dred (GeneID 40124) [DRSC11057]: activity call = inactive
Dred (GeneID 40124) [DRSC11059]: activity call = inactive
CG11147 (GeneID 33803) [DRSC02129]: activity call = inactive
CG9775 (GeneID 40576) [DRSC12330]: activity call = inactive
CG9775 (GeneID 40576) [DRSC22667]: activity call = inactive
CG9667 (GeneID 40960) [DRSC16535]: activity call = inactive
CG31054 (retired record) (GeneID 318573) [DRSC22134]: activity call = inactive
betaTub85D (GeneID 41124) [DRSC16910]: activity call = inactive
CG5776 (GeneID 34680) [DRSC02891]: activity call = inactive
SoxN (GeneID 44275) [DRSC03440]: activity call = inactive
SoxN (GeneID 44275) [DRSC21779]: activity call = inactive
pico (GeneID 33003) [DRSC19430]: activity call = inactive
Got2 (GeneID 33373) [DRSC00643]: activity call = inactive
CG31343 (GeneID 326133) [DRSC15887]: activity call = inactive
CG31698 (GeneID 318888) [DRSC22226]: activity call = inactive
CG14710 (GeneID 41393) [DRSC14933]: activity call = inactive
CG11815 (GeneID 38263) [DRSC08209]: activity call = inactive
CG33704 (GeneID 3772359) [DRSC03838]: activity call = inactive
CG3106 (GeneID 31909) [DRSC18279]: activity call = inactive
CG32564 (GeneID 326222) [DRSC19933]: activity call = inactive
Epp (GeneID 42840) [DRSC14607]: activity call = inactive
CG42367 (GeneID 318998) [DRSC21388]: activity call = inactive
Rif1 (GeneID 246445) [DRSC05593]: activity call = inactive
wbl (GeneID 37206) [DRSC07718]: activity call = inactive
Tpl94D (GeneID 318658) [DRSC13593]: activity call = inactive
CG11378 (GeneID 31060) [DRSC18627]: activity call = inactive
CG2258 (GeneID 31729) [DRSC18222]: activity call = inactive
Ag5r2 (GeneID 44079) [DRSC19328]: activity call = inactive
CG13605 (GeneID 42858) [DRSC14608]: activity call = inactive
CG4650 (GeneID 34859) [DRSC02767]: activity call = inactive
Cyp6a22 (GeneID 49847) [DRSC07382]: activity call = inactive
Jhedup (GeneID 36779) [DRSC07173]: activity call = inactive
